In the supplement of paper PMC12823440, “Inhibitors supercharge kinase turnover through native proteolytic circuits” (Nature, 2025):
Structures can show the parent of a compound that is named as a salt. The list shows a part of the results. Hit calls seldom repeat between salt and free forms of one compound.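 In K562 cells expressing nanoluciferase-fused kinases, luminescence was recorded at 4 h intervals between 2 and 18 h, normalized as percent of control with DMSO at 100% and a positive control at 0%. A significant (2 sigma) signal drop marks a time point as decreased. The authors' rule for a hit is not shown and takes in more than the number of time points.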

Protein sequences, listed by entry. Tags and fused reporters are not part of them. Lines headed by an entry give the natural chain unless they say otherwise; changes in a name come on top.
UniProt O15530: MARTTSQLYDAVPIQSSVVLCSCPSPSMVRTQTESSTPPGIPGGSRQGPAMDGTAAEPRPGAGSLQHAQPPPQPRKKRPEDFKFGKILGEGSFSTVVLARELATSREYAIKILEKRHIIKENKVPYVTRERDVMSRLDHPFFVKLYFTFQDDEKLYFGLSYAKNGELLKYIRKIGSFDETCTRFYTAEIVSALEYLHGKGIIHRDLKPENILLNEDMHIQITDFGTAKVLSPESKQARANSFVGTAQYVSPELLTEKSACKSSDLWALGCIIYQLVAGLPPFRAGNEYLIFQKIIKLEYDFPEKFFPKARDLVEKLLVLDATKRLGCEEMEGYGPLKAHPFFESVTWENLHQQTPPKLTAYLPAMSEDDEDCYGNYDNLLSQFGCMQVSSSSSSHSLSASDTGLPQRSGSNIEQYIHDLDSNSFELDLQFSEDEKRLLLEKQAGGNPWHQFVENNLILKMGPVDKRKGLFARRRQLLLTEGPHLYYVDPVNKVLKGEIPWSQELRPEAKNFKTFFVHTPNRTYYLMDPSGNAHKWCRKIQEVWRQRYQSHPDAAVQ
UniProt P42356, whole entry, looked up: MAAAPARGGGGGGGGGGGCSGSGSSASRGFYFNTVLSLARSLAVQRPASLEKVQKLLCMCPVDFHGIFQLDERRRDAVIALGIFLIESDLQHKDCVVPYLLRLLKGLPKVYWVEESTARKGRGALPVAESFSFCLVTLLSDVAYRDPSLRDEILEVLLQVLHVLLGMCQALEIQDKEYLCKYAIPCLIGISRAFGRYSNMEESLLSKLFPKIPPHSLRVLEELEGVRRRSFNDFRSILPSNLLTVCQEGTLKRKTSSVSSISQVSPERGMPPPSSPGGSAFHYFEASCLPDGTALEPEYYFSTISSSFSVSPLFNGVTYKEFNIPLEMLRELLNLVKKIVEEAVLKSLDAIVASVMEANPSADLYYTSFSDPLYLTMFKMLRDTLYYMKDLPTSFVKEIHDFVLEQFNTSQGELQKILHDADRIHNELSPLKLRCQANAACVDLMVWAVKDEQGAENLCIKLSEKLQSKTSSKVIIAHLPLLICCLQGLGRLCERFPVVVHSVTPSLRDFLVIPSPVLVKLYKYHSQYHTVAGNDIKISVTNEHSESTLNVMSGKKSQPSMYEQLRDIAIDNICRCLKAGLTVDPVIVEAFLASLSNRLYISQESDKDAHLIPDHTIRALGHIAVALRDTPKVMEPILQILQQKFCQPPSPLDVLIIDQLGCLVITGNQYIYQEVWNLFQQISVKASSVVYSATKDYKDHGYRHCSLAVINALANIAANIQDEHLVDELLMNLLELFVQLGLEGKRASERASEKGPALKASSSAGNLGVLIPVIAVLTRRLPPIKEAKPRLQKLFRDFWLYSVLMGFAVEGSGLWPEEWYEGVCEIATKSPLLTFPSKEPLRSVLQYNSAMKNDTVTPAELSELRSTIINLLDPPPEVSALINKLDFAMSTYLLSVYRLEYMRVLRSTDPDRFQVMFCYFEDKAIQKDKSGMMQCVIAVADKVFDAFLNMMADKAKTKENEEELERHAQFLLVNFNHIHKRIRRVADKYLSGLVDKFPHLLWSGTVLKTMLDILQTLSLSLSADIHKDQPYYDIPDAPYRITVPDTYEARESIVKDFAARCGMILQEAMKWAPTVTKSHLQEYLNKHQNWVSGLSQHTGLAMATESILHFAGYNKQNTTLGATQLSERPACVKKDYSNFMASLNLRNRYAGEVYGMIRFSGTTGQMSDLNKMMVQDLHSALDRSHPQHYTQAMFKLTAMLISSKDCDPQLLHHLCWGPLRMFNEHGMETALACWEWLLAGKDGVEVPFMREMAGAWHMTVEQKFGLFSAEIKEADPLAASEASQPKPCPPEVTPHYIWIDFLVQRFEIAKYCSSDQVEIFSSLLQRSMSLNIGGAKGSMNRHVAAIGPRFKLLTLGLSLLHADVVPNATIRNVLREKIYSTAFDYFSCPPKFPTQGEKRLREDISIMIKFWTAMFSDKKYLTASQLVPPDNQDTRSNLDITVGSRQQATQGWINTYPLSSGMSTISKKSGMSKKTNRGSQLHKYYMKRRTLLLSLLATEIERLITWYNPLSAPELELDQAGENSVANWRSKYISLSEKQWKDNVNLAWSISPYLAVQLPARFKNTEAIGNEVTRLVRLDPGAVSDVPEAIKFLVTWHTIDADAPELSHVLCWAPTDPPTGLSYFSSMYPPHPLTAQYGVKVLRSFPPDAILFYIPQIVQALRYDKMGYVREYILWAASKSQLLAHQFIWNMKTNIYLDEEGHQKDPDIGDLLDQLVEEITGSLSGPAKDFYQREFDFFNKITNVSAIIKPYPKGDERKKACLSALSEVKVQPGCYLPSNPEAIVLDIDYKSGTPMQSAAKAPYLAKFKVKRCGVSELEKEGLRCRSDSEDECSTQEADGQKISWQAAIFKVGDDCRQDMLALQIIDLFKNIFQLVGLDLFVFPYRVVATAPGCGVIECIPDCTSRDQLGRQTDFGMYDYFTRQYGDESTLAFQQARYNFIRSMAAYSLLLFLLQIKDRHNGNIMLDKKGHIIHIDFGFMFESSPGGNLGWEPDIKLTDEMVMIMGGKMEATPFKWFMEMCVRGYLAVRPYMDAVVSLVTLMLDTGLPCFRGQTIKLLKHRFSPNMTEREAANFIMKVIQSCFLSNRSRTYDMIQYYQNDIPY
UniProt P53350, whole entry: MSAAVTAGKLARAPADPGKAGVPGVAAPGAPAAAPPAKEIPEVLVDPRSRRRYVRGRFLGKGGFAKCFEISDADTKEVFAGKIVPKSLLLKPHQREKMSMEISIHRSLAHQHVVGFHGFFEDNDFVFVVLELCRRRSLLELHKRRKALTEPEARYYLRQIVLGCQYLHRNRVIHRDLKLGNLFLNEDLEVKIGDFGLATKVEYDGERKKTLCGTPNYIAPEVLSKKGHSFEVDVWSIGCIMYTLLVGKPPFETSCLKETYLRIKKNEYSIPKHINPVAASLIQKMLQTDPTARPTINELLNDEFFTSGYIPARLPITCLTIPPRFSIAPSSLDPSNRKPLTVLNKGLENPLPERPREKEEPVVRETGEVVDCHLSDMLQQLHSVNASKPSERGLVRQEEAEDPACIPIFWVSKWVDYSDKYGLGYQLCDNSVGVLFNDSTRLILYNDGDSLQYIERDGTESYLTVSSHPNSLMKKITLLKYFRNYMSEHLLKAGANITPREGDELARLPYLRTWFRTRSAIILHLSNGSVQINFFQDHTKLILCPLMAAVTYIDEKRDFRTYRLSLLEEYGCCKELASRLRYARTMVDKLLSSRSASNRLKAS
UniProt Q13131: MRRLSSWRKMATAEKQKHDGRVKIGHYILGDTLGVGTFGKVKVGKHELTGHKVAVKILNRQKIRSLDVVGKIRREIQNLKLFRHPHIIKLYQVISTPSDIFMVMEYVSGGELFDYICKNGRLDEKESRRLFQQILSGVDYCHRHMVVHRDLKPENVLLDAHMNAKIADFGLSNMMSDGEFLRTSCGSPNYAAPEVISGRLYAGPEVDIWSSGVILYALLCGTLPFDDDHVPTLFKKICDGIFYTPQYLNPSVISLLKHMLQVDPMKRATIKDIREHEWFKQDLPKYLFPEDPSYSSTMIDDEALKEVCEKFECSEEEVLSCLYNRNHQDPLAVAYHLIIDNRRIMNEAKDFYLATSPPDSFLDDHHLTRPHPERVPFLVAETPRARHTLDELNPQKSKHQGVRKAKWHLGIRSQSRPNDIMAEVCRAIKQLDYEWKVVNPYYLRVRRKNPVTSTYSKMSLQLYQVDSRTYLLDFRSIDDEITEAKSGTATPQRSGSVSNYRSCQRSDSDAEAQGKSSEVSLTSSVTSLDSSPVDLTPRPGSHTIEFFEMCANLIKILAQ
UniProt Q14289, whole entry, looked up: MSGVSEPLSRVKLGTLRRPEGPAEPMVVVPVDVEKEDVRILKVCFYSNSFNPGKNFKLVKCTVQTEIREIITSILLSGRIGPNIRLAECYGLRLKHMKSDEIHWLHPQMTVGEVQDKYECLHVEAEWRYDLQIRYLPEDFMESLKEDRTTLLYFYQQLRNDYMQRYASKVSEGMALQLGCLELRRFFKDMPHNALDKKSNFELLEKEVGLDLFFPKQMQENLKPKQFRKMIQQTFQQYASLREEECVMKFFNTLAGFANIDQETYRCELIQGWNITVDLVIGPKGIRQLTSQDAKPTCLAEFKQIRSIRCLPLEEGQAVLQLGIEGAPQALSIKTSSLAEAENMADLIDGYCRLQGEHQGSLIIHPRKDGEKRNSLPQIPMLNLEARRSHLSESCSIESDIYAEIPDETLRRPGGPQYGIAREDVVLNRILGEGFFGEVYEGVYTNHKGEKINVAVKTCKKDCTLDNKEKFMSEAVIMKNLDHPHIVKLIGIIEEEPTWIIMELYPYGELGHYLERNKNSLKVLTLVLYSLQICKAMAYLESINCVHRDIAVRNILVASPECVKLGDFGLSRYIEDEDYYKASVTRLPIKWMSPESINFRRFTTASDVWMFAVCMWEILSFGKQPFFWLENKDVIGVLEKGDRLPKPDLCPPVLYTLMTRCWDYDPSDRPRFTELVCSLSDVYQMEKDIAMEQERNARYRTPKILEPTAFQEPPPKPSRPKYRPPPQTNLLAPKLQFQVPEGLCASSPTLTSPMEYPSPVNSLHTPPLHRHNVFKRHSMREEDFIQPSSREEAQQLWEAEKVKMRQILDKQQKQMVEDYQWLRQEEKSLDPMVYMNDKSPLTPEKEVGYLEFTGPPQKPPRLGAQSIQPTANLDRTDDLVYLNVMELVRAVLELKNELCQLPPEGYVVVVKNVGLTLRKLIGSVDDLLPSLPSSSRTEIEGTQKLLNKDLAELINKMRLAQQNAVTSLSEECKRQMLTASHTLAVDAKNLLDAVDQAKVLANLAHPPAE
UniProt Q15418, whole entry: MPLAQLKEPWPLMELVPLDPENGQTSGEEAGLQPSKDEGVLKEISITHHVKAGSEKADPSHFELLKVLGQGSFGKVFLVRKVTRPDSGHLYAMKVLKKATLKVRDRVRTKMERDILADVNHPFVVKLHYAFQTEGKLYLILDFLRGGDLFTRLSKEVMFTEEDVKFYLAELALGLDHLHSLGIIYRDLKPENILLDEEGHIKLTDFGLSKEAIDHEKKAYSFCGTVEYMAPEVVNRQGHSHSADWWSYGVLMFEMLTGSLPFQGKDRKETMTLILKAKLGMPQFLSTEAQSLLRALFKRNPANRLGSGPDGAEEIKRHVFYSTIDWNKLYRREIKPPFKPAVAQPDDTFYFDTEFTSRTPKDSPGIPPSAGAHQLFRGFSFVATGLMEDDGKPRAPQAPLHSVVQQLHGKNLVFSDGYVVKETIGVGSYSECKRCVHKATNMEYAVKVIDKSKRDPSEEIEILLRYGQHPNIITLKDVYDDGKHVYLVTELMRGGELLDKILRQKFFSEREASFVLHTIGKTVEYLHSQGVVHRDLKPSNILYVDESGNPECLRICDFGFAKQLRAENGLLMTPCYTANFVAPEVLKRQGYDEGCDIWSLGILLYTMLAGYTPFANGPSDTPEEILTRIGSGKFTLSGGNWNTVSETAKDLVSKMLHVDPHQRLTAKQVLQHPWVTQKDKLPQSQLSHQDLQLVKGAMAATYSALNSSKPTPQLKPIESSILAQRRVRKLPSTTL
UniProt Q9NYA1, whole entry: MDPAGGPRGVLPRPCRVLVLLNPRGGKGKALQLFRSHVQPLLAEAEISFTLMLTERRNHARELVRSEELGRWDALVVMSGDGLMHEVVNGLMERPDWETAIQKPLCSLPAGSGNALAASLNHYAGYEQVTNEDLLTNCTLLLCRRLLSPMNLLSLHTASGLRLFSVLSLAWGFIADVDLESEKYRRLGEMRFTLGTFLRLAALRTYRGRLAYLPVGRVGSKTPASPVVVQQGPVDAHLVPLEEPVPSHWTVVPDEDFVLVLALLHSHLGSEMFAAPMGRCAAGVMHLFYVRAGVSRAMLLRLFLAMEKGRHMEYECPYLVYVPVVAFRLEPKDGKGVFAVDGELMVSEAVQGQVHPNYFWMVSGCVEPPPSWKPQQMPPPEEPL
UniProt Q9Y6E0: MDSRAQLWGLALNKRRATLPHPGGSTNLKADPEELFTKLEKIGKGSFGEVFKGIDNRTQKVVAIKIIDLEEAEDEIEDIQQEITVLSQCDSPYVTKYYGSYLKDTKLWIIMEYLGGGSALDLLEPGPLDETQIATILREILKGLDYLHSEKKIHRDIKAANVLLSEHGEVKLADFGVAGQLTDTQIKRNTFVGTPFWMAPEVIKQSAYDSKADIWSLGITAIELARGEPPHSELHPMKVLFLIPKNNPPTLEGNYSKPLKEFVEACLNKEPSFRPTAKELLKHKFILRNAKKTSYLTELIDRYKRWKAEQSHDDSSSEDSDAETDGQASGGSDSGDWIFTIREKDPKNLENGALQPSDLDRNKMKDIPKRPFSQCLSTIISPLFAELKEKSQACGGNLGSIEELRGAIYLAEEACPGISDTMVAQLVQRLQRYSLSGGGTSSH

Tests used:
Experiment in all cases: kinase-Nluc reporter destabilization hit call (1 = scored as downregulated) (binary); higher = compound decreases kinase abundance
Settings in all cases: K562; 2-18 h
PDPK1 = PDPK1 (UniProt O15530)
PIK4CA = PIK4CA (UniProt P42356)
PIK4CB = PIK4CB (UniProt Q9UBF8)
PLK1 = PLK1 (UniProt P53350)
PRKAA1 = PRKAA1 (UniProt Q13131)
PRKCA = PRKCA (UniProt P17252)
PTK2 = PTK2 (UniProt Q05397)
PTK2B = PTK2B (UniProt Q14289)
RAF1 = RAF1 (UniProt P04049)
[1] = biological target: RAF1_S257L (clone: RAF1_mut) (UniProt P04049)
RET = RET (UniProt P07949)
[2] = biological target: RET_M918T (clone: RET_mut) (UniProt P07949)
RIOK1 = RIOK1 (UniProt Q9BRS2)
RIPK1 = RIPK1 (UniProt Q13546)
RIPK2 = RIPK2 (UniProt O43353)
ROR2 = ROR2 (UniProt Q01974)
RPS6KA1 = RPS6KA1 (UniProt Q15418)
SPHK1 = SPHK1 (UniProt Q9NYA1)
SRC = SRC (UniProt P12931)
STK24 = STK24 (UniProt Q9Y6E0)

Measured: kinase-Nluc reporter destabilization hit call

Cn1cc(-c2ccc3c(c2)CCN3C(=O)Cc2cccc(C(F)(F)F)c2)c2c(N)ncnc21 (2.5 µM)
inactive: PDPK1 = 0 | PIK4CA 0 | PIK4CB 0 | PLK1 = 0 | PRKAA1 = 0 | PRKCA 0 | PTK2 = 0 | PTK2B 0 | RAF1 = 0 | [1] 0 | RET 0 | [2] 0 | RIOK1 = 0 | RIPK1 = 0 | RIPK2 = 0 | ROR2 = 0 | RPS6KA1 = 0 | SPHK1 = 0 | SRC 0 | STK24 = 0

Cc1ccc(C(=O)Nc2ccc(Oc3cc4cnn(C)c4cc3-c3cn[nH]c3)c(F)c2)c(=O)n1-c1ccc(F)cc1 [Merestinib] (2.5 µM)
inactive: PDPK1 = 0 | PIK4CA 0 | PIK4CB 0 | PLK1 = 0 | PRKAA1 = 0 | PRKCA 0 | PTK2 = 0 | PTK2B 0 | RAF1 = 0 | [1] 0 | RET 0 | [2] 0 | RIOK1 = 0 | RIPK1 = 0 | RIPK2 = 0 | ROR2 = 0 | RPS6KA1 = 0 | SPHK1 = 0 | SRC 0 | STK24 = 0

O=C1NC(=O)/C(=C\c2cccc(C(F)(F)F)c2)S1 (2.5 µM)
inactive: PDPK1 = 0 | PIK4CA 0 | PIK4CB 0 | PLK1 = 0 | PRKAA1 = 0 | PRKCA 0 | PTK2 = 0 | PTK2B 0 | RAF1 = 0 | [1] 0 | RET 0 | [2] 0 | RIOK1 = 0 | RIPK1 = 0 | RIPK2 = 0 | ROR2 = 0 | RPS6KA1 = 0 | SPHK1 = 0 | SRC 0 | STK24 = 0

CN(C)CCCOc1ccc(-c2ccc3ncc4c(c3c2)n(C2CCOCC2)c(=O)n4C)cn1 (2 µM)
inactive: PDPK1 = 0 | PIK4CA 0 | PIK4CB 0 | PLK1 = 0 | PRKAA1 = 0 | PRKCA 0 | PTK2 = 0 | PTK2B 0 | RAF1 = 0 | [1] 0 | RET 0 | [2] 0 | RIOK1 = 0 | RIPK1 = 0 | RIPK2 = 0 | ROR2 = 0 | RPS6KA1 = 0 | SPHK1 = 0 | SRC 0 | STK24 = 0

CCN1CCN(Cc2ccc(Nc3ncc(F)c(-c4cc(F)c5nc(C)n(C(C)C)c5c4)n3)nc2)CC1 [Abemaciclib (methanesulfonate)] (10 µM)
inactive: PDPK1 = 0 | PIK4CA 0 | PIK4CB 0 | PLK1 = 0 | PRKAA1 = 0 | PRKCA 0 | PTK2 = 0 | PTK2B 0 | RAF1 = 0 | [1] 0 | RET 0 | [2] 0 | RIOK1 = 0 | RIPK1 = 0 | RIPK2 = 0 | ROR2 = 0 | RPS6KA1 = 0 | SPHK1 = 0 | SRC 0 | STK24 = 0

C[C@@H]1CC[C@@H](Nc2nc(NC(C)(C)C)ncc2C(N)=O)C[C@H]1O (10 µM)
inactive: PDPK1 = 0 | PIK4CA 0 | PIK4CB 0 | PLK1 = 0 | PRKAA1 = 0 | PRKCA 0 | PTK2 = 0 | PTK2B 0 | RAF1 = 0 | [1] 0 | RET 0 | [2] 0 | RIOK1 = 0 | RIPK1 = 0 | RIPK2 = 0 | ROR2 = 0 | RPS6KA1 = 0 | SPHK1 = 0 | SRC 0 | STK24 = 0

CCN1CCC(n2cc(CNc3cc(Cl)c4ncc(C#N)c(Nc5ccc(F)c(Cl)c5)c4c3)nn2)CC1 [Cot inhibitor-2] (2.5 µM)
inactive: PDPK1 = 0 | PIK4CA 0 | PIK4CB 0 | PLK1 = 0 | PRKAA1 = 0 | PRKCA 0 | PTK2 = 0 | PTK2B 0 | RAF1 = 0 | [1] 0 | RET 0 | [2] 0 | RIOK1 = 0 | RIPK1 = 0 | RIPK2 = 0 | ROR2 = 0 | RPS6KA1 = 0 | SPHK1 = 0 | SRC 0 | STK24 = 0

CC#CC(=O)N1CC[C@@H](n2c(=O)n(-c3ccc(Oc4ccccc4)cc3)c3c(N)ncnc32)C1 [Tirabrutinib (hydrochloride)] (10 µM)
inactive: PDPK1 = 0 | PIK4CA 0 | PIK4CB 0 | PLK1 = 0 | PRKAA1 = 0 | PRKCA 0 | PTK2 = 0 | PTK2B 0 | RAF1 = 0 | [1] 0 | RET 0 | [2] 0 | RIOK1 = 0 | RIPK1 = 0 | RIPK2 = 0 | ROR2 = 0 | RPS6KA1 = 0 | SPHK1 = 0 | SRC 0 | STK24 = 0

CC(=O)NC1CC(n2cnc(NC(=O)Cc3ccc4ccccc4c3)c2)C1 (stereo not given) (10 µM)
inactive: PDPK1 = 0 | PIK4CA 0 | PIK4CB 0 | PLK1 = 0 | PRKAA1 = 0 | PRKCA 0 | PTK2 = 0 | PTK2B 0 | RAF1 = 0 | [1] 0 | RET 0 | [2] 0 | RIOK1 = 0 | RIPK1 = 0 | RIPK2 = 0 | ROR2 = 0 | RPS6KA1 = 0 | SPHK1 = 0 | SRC 0 | STK24 = 0

COc1ncc(Cl)cc1S(=O)(=O)Nc1ccc(F)c(C#Cc2cnc(N)nc2)c1F (2.5 µM)
inactive: PDPK1 = 0 | PIK4CA 0 | PIK4CB 0 | PLK1 = 0 | PRKAA1 = 0 | PRKCA 0 | PTK2 = 0 | PTK2B 0 | RAF1 = 0 | [1] 0 | RET 0 | [2] 0 | RIOK1 = 0 | RIPK1 = 0 | RIPK2 = 0 | ROR2 = 0 | RPS6KA1 = 0 | SPHK1 = 0 | SRC 0 | STK24 = 0

C=CC(=O)Nc1cc(Nc2ncc(Cl)c(-c3c[nH]c4ccccc34)n2)c(OC)cc1N(C)CCN(C)C [Mutant EGFR inhibitor] (2.5 µM)
inactive: PDPK1 = 0 | PIK4CA 0 | PIK4CB 0 | PLK1 = 0 | PRKAA1 = 0 | PRKCA 0 | PTK2 = 0 | PTK2B 0 | RAF1 = 0 | [1] 0 | RET 0 | [2] 0 | RIOK1 = 0 | RIPK1 = 0 | RIPK2 = 0 | ROR2 = 0 | RPS6KA1 = 0 | SPHK1 = 0 | SRC 0 | STK24 = 0

CC(C)(C)c1nc(-c2cccc(NS(=O)(=O)c3c(F)cccc3F)c2F)c(-c2ccnc(N)n2)s1 [Dabrafenib] (2.5 µM)
inactive: PDPK1 = 0 | PIK4CA 0 | PIK4CB 0 | PLK1 = 0 | PRKAA1 = 0 | PRKCA 0 | PTK2 = 0 | PTK2B 0 | RAF1 = 0 | [1] 0 | RET 0 | [2] 0 | RIOK1 = 0 | RIPK1 = 0 | RIPK2 = 0 | ROR2 = 0 | RPS6KA1 = 0 | SPHK1 = 0 | SRC 0 | STK24 = 0

Cc1[nH]c(/C=C2\C(=O)Nc3ccc(F)cc32)c(C)c1C(=O)N[C@H]1CCN(C(=O)N(C)C)C1 [Vorolanib] (10 µM)
inactive: PDPK1 = 0 | PIK4CA 0 | PIK4CB 0 | PLK1 = 0 | PRKAA1 = 0 | PRKCA 0 | PTK2 = 0 | PTK2B 0 | RAF1 = 0 | [1] 0 | RET 0 | [2] 0 | RIOK1 = 0 | RIPK1 = 0 | RIPK2 = 0 | ROR2 = 0 | RPS6KA1 = 0 | SPHK1 = 0 | SRC 0 | STK24 = 0

CCc1cc2c(cc1N1CCC(N3CCOCC3)CC1)C(C)(C)c1[nH]c3cc(C#N)ccc3c1C2=O [Alectinib] (10 µM)
inactive: PDPK1 = 0 | PIK4CA 0 | PIK4CB 0 | PLK1 = 0 | PRKAA1 = 0 | PRKCA 0 | PTK2 = 0 | PTK2B 0 | RAF1 = 0 | [1] 0 | RET 0 | [2] 0 | RIOK1 = 0 | RIPK1 = 0 | RIPK2 = 0 | ROR2 = 0 | RPS6KA1 = 0 | SPHK1 = 0 | SRC 0 | STK24 = 0

O=C1NC(=O)/C(=C/c2ccc3nccnc3c2)S1 (10 µM)
inactive: PDPK1 = 0 | PIK4CA 0 | PIK4CB 0 | PLK1 = 0 | PRKAA1 = 0 | PRKCA 0 | PTK2 = 0 | PTK2B 0 | RAF1 = 0 | [1] 0 | RET 0 | [2] 0 | RIOK1 = 0 | RIPK1 = 0 | RIPK2 = 0 | ROR2 = 0 | RPS6KA1 = 0 | SPHK1 = 0 | SRC 0 | STK24 = 0

2 successive entries already listed, for reference:
CC(C)(C)c1nc(-c2cccc(NS(=O)(=O)c3c(F)cccc3F)c2F)c(-c2ccnc(N)n2)s1 [Dabrafenib] (2.5 µM)
inactive: PDPK1 = 0 | PIK4CA 0 | PIK4CB 0 | PLK1 = 0 | PRKAA1 = 0 | PRKCA 0 | PTK2 = 0 | PTK2B 0 | RAF1 = 0 | [1] 0 | RET 0 | [2] 0 | RIOK1 = 0 | RIPK1 = 0 | RIPK2 = 0 | ROR2 = 0 | RPS6KA1 = 0 | SPHK1 = 0 | SRC 0 | STK24 = 0

Cc1[nH]c(/C=C2\C(=O)Nc3ccc(F)cc32)c(C)c1C(=O)N[C@H]1CCN(C(=O)N(C)C)C1 [Vorolanib] (10 µM)
inactive: PDPK1 = 0 | PIK4CA 0 | PIK4CB 0 | PLK1 = 0 | PRKAA1 = 0 | PRKCA 0 | PTK2 = 0 | PTK2B 0 | RAF1 = 0 | [1] 0 | RET 0 | [2] 0 | RIOK1 = 0 | RIPK1 = 0 | RIPK2 = 0 | ROR2 = 0 | RPS6KA1 = 0 | SPHK1 = 0 | SRC 0 | STK24 = 0
